# Results: the supplement of paper PMC12819154, “High-throughput peptide-centric local stability assay extends protein–ligand identification to membrane proteins, tissues and bacteria” (Nature Structural & Molecular Biology, 2025)
# Amino acid sequences for entries named in this document (tags omitted). A change or cut given only in a name is not applied to a line headed by its entry.
# UniProt Q9WVE8: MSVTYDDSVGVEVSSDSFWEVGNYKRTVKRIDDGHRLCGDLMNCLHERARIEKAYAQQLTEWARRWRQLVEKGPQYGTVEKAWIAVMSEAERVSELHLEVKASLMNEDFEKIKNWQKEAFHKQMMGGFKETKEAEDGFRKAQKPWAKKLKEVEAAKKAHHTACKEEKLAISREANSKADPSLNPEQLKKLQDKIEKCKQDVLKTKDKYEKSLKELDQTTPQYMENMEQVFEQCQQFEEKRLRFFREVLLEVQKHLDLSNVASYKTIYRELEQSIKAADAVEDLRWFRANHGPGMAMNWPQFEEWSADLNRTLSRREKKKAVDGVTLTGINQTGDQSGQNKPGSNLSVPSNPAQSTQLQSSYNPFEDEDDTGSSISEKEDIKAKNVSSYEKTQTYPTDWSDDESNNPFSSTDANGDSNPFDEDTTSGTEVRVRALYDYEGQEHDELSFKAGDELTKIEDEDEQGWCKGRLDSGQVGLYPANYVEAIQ
# UniProt Q9Z0N1, whole entry: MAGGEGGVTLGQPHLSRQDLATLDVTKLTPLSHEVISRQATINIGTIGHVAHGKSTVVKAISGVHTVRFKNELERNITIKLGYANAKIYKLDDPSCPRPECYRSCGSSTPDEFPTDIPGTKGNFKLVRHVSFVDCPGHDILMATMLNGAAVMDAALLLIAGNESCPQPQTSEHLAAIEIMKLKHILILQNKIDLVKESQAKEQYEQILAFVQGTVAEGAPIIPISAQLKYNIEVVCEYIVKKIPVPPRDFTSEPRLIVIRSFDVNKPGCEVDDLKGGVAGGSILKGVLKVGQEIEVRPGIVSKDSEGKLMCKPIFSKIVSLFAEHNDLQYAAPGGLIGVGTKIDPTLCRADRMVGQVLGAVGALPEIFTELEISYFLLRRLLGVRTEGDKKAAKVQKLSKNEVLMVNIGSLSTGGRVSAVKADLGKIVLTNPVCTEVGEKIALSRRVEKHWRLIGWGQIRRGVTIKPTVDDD
# UniProt Q9Z351, whole entry: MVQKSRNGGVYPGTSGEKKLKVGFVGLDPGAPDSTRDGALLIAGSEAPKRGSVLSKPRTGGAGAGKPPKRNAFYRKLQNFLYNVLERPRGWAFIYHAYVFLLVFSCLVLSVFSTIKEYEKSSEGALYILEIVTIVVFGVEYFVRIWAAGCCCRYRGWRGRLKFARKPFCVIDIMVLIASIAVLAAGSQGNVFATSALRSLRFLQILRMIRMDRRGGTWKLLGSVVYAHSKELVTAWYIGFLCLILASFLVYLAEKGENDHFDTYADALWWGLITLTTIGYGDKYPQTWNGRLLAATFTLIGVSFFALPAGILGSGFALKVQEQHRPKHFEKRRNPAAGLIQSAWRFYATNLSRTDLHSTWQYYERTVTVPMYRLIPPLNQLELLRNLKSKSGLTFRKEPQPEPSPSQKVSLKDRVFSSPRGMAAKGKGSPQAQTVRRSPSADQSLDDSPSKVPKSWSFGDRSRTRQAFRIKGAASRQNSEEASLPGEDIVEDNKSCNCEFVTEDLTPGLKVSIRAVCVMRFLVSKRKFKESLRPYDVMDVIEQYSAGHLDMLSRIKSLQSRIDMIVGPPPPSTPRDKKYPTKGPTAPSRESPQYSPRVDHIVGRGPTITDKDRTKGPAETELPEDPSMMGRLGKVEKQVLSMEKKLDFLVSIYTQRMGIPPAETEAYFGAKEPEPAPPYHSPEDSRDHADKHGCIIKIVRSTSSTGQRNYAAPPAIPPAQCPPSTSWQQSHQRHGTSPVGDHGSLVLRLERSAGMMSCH
# UniProt Q9Z2A5: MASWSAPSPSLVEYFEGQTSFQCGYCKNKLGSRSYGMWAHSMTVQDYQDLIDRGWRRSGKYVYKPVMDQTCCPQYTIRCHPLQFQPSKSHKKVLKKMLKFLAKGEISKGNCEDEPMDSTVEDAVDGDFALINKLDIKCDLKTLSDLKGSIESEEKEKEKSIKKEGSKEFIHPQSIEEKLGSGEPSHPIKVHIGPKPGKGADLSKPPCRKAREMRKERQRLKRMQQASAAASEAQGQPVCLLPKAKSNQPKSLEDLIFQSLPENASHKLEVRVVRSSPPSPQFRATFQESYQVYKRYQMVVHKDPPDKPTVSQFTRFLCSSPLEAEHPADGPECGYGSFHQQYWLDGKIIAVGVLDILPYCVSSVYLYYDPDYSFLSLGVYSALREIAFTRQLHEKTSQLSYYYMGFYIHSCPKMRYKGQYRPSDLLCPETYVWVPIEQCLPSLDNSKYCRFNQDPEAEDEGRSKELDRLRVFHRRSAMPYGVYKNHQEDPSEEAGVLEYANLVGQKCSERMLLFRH
# UniProt Q9Z0E8: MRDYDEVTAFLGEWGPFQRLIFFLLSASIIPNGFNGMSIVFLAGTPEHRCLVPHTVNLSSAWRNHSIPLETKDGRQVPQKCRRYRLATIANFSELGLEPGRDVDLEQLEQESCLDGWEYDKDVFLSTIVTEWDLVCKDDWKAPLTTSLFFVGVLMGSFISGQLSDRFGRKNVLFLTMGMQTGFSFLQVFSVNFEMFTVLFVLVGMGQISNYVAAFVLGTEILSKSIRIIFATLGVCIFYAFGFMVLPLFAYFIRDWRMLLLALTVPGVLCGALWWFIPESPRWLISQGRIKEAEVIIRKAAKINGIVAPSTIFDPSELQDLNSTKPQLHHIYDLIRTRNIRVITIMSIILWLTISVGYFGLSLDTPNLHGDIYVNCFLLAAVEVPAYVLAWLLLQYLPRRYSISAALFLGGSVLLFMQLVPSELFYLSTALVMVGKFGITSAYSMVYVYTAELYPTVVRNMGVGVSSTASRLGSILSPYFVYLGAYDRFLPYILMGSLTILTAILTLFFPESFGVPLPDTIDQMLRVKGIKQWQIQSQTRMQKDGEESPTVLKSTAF
# UniProt Q9Z0L8: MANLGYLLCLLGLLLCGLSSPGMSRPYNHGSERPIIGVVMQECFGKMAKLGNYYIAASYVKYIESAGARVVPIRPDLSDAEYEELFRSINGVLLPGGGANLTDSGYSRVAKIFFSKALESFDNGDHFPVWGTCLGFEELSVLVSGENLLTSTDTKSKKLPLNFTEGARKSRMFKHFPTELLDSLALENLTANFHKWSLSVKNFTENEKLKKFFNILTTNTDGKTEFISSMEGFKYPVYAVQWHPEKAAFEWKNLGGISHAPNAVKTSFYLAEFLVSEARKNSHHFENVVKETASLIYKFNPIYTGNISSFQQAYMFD
# UniProt Q9Z1B5, whole entry: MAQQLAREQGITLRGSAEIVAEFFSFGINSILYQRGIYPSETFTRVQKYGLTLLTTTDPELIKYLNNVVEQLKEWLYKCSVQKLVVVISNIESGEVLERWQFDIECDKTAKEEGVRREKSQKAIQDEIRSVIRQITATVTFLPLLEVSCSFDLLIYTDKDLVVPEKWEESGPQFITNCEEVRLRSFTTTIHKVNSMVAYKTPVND
# UniProt Q9Z1X2: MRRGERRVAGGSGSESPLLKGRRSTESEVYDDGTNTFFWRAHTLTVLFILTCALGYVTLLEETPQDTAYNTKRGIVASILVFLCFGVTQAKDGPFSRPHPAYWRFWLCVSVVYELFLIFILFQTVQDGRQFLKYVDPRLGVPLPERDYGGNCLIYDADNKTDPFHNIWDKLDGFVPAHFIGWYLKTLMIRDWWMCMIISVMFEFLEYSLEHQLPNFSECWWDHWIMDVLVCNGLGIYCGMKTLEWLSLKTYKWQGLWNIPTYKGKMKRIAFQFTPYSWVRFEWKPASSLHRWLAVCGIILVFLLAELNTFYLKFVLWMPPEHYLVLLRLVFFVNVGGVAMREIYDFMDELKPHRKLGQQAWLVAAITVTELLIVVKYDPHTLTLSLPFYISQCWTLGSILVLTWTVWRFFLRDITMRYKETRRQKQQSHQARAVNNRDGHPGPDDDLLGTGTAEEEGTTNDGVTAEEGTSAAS
# UniProt Q9WVH4: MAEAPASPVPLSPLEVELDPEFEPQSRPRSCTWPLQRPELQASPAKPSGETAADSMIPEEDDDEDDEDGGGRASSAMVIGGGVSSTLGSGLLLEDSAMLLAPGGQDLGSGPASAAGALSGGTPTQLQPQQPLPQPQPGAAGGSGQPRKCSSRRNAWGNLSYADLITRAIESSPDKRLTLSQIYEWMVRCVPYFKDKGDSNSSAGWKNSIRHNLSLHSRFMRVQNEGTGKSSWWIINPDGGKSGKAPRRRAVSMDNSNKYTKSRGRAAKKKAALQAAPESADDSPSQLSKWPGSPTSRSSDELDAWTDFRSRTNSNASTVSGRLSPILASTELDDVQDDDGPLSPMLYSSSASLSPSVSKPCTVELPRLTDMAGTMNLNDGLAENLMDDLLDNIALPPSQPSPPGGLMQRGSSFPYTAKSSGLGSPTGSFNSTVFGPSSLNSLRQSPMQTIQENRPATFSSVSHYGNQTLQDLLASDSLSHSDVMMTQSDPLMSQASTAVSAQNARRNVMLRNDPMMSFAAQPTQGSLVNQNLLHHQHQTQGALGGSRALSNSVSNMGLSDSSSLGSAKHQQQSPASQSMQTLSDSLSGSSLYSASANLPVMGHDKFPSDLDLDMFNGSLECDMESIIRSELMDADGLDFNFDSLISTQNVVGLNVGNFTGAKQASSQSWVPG
# UniProt Q9WVA4: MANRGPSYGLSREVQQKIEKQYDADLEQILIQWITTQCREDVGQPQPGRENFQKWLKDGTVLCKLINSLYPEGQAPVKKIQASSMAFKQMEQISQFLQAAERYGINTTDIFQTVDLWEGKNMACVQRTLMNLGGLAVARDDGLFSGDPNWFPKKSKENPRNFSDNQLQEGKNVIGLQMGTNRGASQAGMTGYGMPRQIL
# UniProt Q9Z2D0: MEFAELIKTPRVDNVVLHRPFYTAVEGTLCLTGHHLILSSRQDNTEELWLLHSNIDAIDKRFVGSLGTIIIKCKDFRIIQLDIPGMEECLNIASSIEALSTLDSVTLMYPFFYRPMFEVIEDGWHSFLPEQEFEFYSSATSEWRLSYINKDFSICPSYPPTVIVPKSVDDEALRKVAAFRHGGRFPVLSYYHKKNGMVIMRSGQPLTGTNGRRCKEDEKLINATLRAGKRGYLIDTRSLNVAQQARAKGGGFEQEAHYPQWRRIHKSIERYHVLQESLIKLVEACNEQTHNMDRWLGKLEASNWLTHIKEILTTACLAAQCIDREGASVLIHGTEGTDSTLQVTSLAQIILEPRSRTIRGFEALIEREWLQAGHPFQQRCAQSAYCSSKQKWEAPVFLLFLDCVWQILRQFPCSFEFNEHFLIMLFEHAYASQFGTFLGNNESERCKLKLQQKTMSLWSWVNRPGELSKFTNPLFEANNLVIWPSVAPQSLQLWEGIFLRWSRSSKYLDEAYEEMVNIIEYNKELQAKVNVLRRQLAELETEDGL
# UniProt Q9Z1Q2: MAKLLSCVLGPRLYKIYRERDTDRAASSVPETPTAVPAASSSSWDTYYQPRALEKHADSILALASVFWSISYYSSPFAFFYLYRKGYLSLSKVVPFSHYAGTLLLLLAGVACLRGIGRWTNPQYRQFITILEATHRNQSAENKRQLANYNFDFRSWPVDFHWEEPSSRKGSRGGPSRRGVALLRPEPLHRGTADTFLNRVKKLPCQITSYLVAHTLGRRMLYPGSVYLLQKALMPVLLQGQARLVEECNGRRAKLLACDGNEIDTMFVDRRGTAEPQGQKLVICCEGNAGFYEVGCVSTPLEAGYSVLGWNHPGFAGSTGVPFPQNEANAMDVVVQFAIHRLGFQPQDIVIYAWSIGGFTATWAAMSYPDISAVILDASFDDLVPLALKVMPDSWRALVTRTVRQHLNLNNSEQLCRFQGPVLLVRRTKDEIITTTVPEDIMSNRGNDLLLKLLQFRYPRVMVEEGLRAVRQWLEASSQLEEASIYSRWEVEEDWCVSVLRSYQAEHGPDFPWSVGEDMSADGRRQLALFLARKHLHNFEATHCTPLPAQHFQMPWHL
# UniProt Q9Z1J2: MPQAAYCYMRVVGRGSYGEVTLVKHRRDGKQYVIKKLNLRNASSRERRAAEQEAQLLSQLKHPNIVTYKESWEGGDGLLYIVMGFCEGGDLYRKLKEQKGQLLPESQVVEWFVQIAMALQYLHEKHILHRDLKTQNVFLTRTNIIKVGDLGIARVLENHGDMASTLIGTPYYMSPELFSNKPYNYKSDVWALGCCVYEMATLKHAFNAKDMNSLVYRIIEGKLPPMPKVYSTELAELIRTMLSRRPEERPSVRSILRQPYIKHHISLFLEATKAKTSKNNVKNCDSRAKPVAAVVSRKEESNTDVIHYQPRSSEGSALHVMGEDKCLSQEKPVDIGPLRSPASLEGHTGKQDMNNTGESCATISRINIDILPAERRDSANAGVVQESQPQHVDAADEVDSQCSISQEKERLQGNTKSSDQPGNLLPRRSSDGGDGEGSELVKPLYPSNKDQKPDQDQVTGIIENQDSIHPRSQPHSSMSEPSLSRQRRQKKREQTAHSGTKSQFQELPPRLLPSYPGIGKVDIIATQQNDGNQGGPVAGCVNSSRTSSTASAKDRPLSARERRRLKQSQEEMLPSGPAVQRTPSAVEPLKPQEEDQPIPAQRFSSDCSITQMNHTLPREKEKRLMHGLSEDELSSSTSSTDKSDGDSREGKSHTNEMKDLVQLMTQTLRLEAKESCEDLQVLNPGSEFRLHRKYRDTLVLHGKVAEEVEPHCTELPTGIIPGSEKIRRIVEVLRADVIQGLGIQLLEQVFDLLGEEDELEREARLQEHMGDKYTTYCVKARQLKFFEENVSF
# The other results are listed elsewhere or left out. Most entries show no effect beyond the scatter of the controls.
# Compound: CN[C@@H]1C[C@H]2O[C@@](C)([C@@H]1OC)n1c3ccccc3c3c4c(c5c6ccccc6n2c5c31)C(=O)NC4 [staurosporine]
# Assay: log2 fold change of tryptic peptide abundance, ligand vs vehicle (limited proteolysis) (log2 ratio); higher = more trypsin-susceptible (destabilized)
# Settings: ligand concentration: 20 uM; sample: mouse liver crude lysate; replicate design: treated separately
row,Target,log2 fold change
1,"UniProt Q9Z2F7 (peptide sequence: EFHFRHPK, peptide start residue: 154)",-0.0535
2,"UniProt Q9WVE8 (peptide sequence: ASLMNEDFEK, peptide start residue: 102)",-0.371
3,"UniProt Q9Z1P7 (peptide sequence: AEDPDGLAAR, peptide start residue: 268)",-0.206
4,"UniProt Q9WVJ3 (peptide sequence: LGLLVDTVGPR, peptide start residue: 65)",-0.0437
5,"UniProt Q9Z0G9 (peptide sequence: STGPGTGTGTAYDR, peptide start residue: 202)",-0.0655
6,"UniProt Q9Z130 (peptide sequence: LDGKLIDPK, peptide start residue: 94)",0.501
7,"UniProt Q9Z2F6 (peptide sequence: GTPGAALPLR, peptide start residue: 22)",-0.193
8,"UniProt Q9Z2R6 (peptide sequence: KGGGGTGSGAEPVPGASNR, peptide start residue: 5)",0.0396
9,"UniProt Q9Z0N1 (peptide sequence: FKNELER, peptide start residue: 69)",0.189
10,"UniProt Q9Z351 (peptide sequence: DRVFSSPRGMAAK, peptide start residue: 413)",-0.482
11,"UniProt Q9Z1A9 (peptide sequence: RPLPHPEPLTAVFQQSGSQSPDSR, peptide start residue: 444)",0.369
12,"UniProt Q9Z2A5 (peptide sequence: GSIESEEKEKEK, peptide start residue: 148)",-0.103
13,"UniProt Q9Z0E8 (peptide sequence: DGEESPTVLK, peptide start residue: 544)",-0.387
14,"UniProt Q9WVL0 (peptide sequence: RQPDTPAELR, peptide start residue: 206)",0.113
15,"UniProt Q9Z0L8 (peptide sequence: NLGGISHAPNAVK, peptide start residue: 253)",0.449
16,"UniProt Q9WVQ5 (peptide sequence: QFYHLGWVTGTGGGISLK, peptide start residue: 33)",0.327
17,"UniProt Q9Z1K5 (peptide sequence: LFAECHVINPSK, peptide start residue: 155)",-0.248

row,Target,log2 fold change
1,"UniProt Q9Z1B5 (peptide sequence: SFTTTIHK, peptide start residue: 185)",0.155
2,"UniProt Q9Z1X2 (peptide sequence: VAGGSGSESPLLK, peptide start residue: 8)",0.0202
3,"UniProt Q9Z2V6 (peptide sequence: QHEVQLQK, peptide start residue: 108)",-0.436
4,"UniProt Q9WVH4 (peptide sequence: GSSFPYTAK, peptide start residue: 410)",-0.125
5,"UniProt Q9WVM8 (peptide sequence: ILSQWKPEDSKDPTK, peptide start residue: 174)",-0.285
6,"UniProt Q9WVA4 (peptide sequence: NFSDNQLQEGK, peptide start residue: 161)",0.0887
7,"UniProt Q9Z1G4 (peptide sequence: HLGTLNFGGIR, peptide start residue: 675)",0.191
8,"UniProt Q9Z2Q5 (peptide sequence: VYTQVEFKR, peptide start residue: 198)",0.793
9,"UniProt Q9Z2D0 (peptide sequence: YHVLQESLIK, peptide start residue: 271)",0.189
10,"UniProt Q9Z0E0 (peptide sequence: GLSEDFQR, peptide start residue: 224)",-0.377
11,"UniProt Q9Z1J3 (peptide sequence: KVYFHTDAAQAVGK, peptide start residue: 228)",-0.205
12,"UniProt Q9Z315 (peptide sequence: ADKNVELR, peptide start residue: 300)",-0.261
13,"UniProt Q9WVT6 (peptide sequence: SVVFTSAR, peptide start residue: 325)",-0.173
14,"UniProt Q9Z1Q2 (peptide sequence: ALMPVLLQGQAR, peptide start residue: 232)",-0.32
15,"UniProt Q9Z1J2 (peptide sequence: LLPSYPGIGK, peptide start residue: 511)",-0.308
16,"UniProt Q9Z2V4 (peptide sequence: LTPIGYIPK, peptide start residue: 552)",0.0941

# Ten entries from above, tab-delimited.
row	Target	log2 fold change
7	UniProt Q9Z1G4 (peptide sequence: HLGTLNFGGIR, peptide start residue: 675)	0.191
8	UniProt Q9Z2Q5 (peptide sequence: VYTQVEFKR, peptide start residue: 198)	0.793
9	UniProt Q9Z2D0 (peptide sequence: YHVLQESLIK, peptide start residue: 271)	0.189
10	UniProt Q9Z0E0 (peptide sequence: GLSEDFQR, peptide start residue: 224)	-0.377
11	UniProt Q9Z1J3 (peptide sequence: KVYFHTDAAQAVGK, peptide start residue: 228)	-0.205
12	UniProt Q9Z315 (peptide sequence: ADKNVELR, peptide start residue: 300)	-0.261
13	UniProt Q9WVT6 (peptide sequence: SVVFTSAR, peptide start residue: 325)	-0.173
14	UniProt Q9Z1Q2 (peptide sequence: ALMPVLLQGQAR, peptide start residue: 232)	-0.32
15	UniProt Q9Z1J2 (peptide sequence: LLPSYPGIGK, peptide start residue: 511)	-0.308
16	UniProt Q9Z2V4 (peptide sequence: LTPIGYIPK, peptide start residue: 552)	0.0941
